Source: the supplement of paper PMC7580552
Counter-ions that a name gives are not always drawn. This is one part of the list. Baselines shift from plate to plate; read single values as rough.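 The strain is a K-12 laboratory model grown without shaking in 96-well plates, and biofilm is the crystal violet stain retained on the wells, read as absorbance. Drugs were picked as candidate specific biofilm blockers when they cut staining strongly but slowed free-floating growth by less than 70%.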

System: Escherichia coli W3110
Experiment: biofilm formation (crystal violet staining) relative to untreated control; higher = more biofilm
Conditions: 10 µM; 20-24 h; 30 °C; TB

SMILES	biofilm formation
CN1CCC[C@@H]1CCO[C@](C)(c1ccccc1)c1ccc(Cl)cc1 [Clemastine fumarate]	55%
CCOc1ccc(NC(C)=O)cc1 [Phenacetin]	64%
CC(C(=O)O)c1ccc(C(=O)c2cccs2)cc1 (stereo not drawn) [Suprofen]	59%
COc1cc2ncnc(Nc3ccc(F)c(Cl)c3)c2cc1OCCCN1CCOCC1 [Gefitinib]	72%
CCCCC[C@H](O)/C=C/[C@H]1[C@H](O)CC(=O)[C@@H]1CCCCCCC(=O)O [Alprostadil]	73%
CCN1CCC[C@H]1CNC(=O)c1c(O)c(Cl)cc(Cl)c1OC [Raclopride]	110%
CC[C@@H]([C@H](C)O)n1ncn(-c2ccc(N3CCN(c4ccc(OC[C@@H]5CO[C@@](Cn6cncn6)(c6ccc(F)cc6F)C5)cc4)CC3)cc2)c1=O [Posaconazole]	42%
CN[C@@H]1[C@H](O[C@H]2[C@H](O[C@H]3[C@H](O)[C@@H](O)[C@H](NC(=N)N)[C@@H](O)[C@@H]3NC(=N)N)O[C@@H](C)[C@]2(O)CO)O[C@@H](CO)[C@H](O)[C@H]1O [Dihydrostreptomycin sulfate]	45%
NCc1ccc(S(N)(=O)=O)cc1 [Mafenide hydrochloride]	50%
CCc1oc2ccccc2c1C(=O)c1cc(Br)c(O)c(Br)c1 [Benzbromarone]	81%
CC/C(=C(\c1ccccc1)c1ccc(OCCN(C)C)cc1)c1ccccc1 [Tamoxifen citrate]	51%
C#C[C@]1(O)CC[C@H]2[C@@H]3CCC4=C(CCC(=O)C4)[C@H]3CC[C@@]21C [Norethynodrel]	79%
NS(=O)(=O)c1cc2c(cc1Cl)NC(CC1CCCC1)NS2(=O)=O (stereo not drawn) [Cyclopenthiazide]	62%
CC(C)(C)NCC(O)c1cc(O)cc(O)c1 (stereo not drawn) [Terbutaline hemisulfate]	75%
CC[N+](CC)(CC)CCOc1cccc(OCC[N+](CC)(CC)CC)c1OCC[N+](CC)(CC)CC [Gallamine triethiodide]	81%
CCOC(=O)[N-]c1c[n+](N2CCOCC2)no1 [Molsidomine]	76%
O=C(O)[C@H]1/C(=C/CO)O[C@@H]2CC(=O)N21 [Clavulanate potassium salt]	49%
O=C(OCCOCCO)c1ccccc1Nc1cccc(C(F)(F)F)c1 [Etofenamate]	76%
Cc1cnc(C(=O)O)c[n+]1[O-] [Acipimox]	76%
COc1ccc(CN2CCN(C(c3ccc(F)cc3)c3ccc(F)cc3)CC2)c(OC)c1OC [Lomerizine hydrochloride]	60%
COc1ccc(C(=O)c2ccccc2O)c(O)c1 [Dioxybenzone]	55%
CC(C)(C)NC[C@H](O)COc1ccccc1C1CCCC1 [Penbutolol sulfate]	79%
Nc1nc2[nH]cc(CCc3ccc(C(=O)N[C@@H](CCC(=O)O)C(=O)O)cc3)c2c(=O)[nH]1 [Pemetrexed disodium]	87%
CN(C)CCCN1c2ccccc2Sc2ccc(Cl)cc21 [Chlorpromazine hydrochloride]	74%
CCOc1ccccc1OC(c1ccccc1)C1CNCCO1 (stereo not drawn) [Reboxetine mesylate]	98%

SMILES	biofilm formation
C[C@@H]1C[C@H]2[C@@H]3C[C@H](F)C4=CC(=O)C=C[C@]4(C)[C@@]3(F)[C@@H](O)C[C@]2(C)[C@@]1(O)C(=O)COC(=O)C(C)(C)C [Flumethasone pivalate]	75%
Nc1ccc(S(=O)(=O)Nc2ccccn2)cc1 [Sulfapyridine]	34%
Nc1ccn([C@@H]2O[C@H](CO)[C@@H](O)[C@@H]2O)c(=O)n1 [Cytarabine]	83%
COc1ccnc(C[S+]([O-])c2nc3cc(OC(F)F)ccc3[nH]2)c1OC (stereo not drawn) [Pantoprazole sodium]	72%
CC(C)(C)c1ccc(C(O)CCCN2CCC(C(O)(c3ccccc3)c3ccccc3)CC2)cc1 (stereo not drawn) [Terfenadine]	40%
CC(COc1ccccc1)NC(C)C(O)c1ccc(O)cc1 (stereo not drawn) [Isoxsuprine hydrochloride]	75%
CCCCN1CCCCC1C(=O)Nc1c(C)cccc1C (stereo not drawn) [Bupivacaine hydrochloride]	65%
CCOC(=O)NNc1nncc2ccccc12 [Todralazine hydrochloride]	105%
CCN(CCO)CCCC(C)Nc1ccnc2cc(Cl)ccc12 (stereo not drawn) [Hydroxychloroquine sulfate]	89%
COc1ccc(CC2c3cc(OC)c(OC)cc3CC[N+]2(C)CCC(=O)OCCCCCOC(=O)CC[N+]2(C)CCc3cc(OC)c(OC)cc3C2Cc2ccc(OC)c(OC)c2)cc1OC (stereo not drawn) [Atracurium besylate]	85%
CC(=O)[C@H]1CC[C@H]2[C@@H]3CC=C4C[C@@H](O)CC[C@]4(C)[C@H]3CC[C@]12C [Pregnenolone]	72%
CN(C)[C@@H]1C(O)=C(C(N)=O)C(=O)[C@@]2(O)C(O)=C3C(=O)c4c(O)cccc4[C@@](C)(O)[C@H]3[C@H](O)[C@@H]12 [Oxytetracycline dihydrate]	17%
CC/C(=C(/CC)c1ccc(O)cc1)c1ccc(O)cc1 [Diethylstilbestrol]	58%
CC1=C(/C=C/C(C)=C/C=C/C(C)=C\C(=O)O)C(C)(C)CCC1 [Isotretinoin]	45%
CSc1ccc2c(c1)N(CCC1CCCCN1C)c1ccccc1S2 (stereo not drawn) [Thioridazine hydrochloride]	92%
Cc1cc(-c2ccccc2)nnc1NCCN1CCOCC1 [Minaprine dihydrochloride]	70%
NC(N)=Nc1nc(CSCC/C(N)=N/S(N)(=O)=O)cs1 [Famotidine]	54%
COc1cc(-c2ccc(=O)[nH]n2)ccc1OC(F)F [Zardaverine]	76%
CCCCC1(COC(=O)CCC(=O)O)C(=O)N(c2ccccc2)N(c2ccccc2)C1=O [Suxibuzone]	72%
COc1cc(NC(C)CCCN)c2ncccc2c1 (stereo not drawn) [Primaquine diphosphate]	99%
CCCCNc1c(C(=O)OCC)c(C)nc2c1cnn2CC [Tracazolate hydrochloride]	85%
C[C@]12CC[C@@H]3c4ccc(OS(=O)(=O)O)cc4CC[C@H]3[C@@H]1CCC2=O [Estropipate]	52%
COc1cccc(OC)c1C(=O)N[C@@H]1C(=O)N2[C@@H]1SC(C)(C)[C@@H]2C(=O)O [Methicillin sodium]	57%
Cc1ccc(S(=O)(=O)NC(=O)NN2CCCCCC2)cc1 [Tolazamide]	87%
CCOC(=O)c1ccc(N)cc1 [Benzocaine]	95%

SMILES	biofilm formation
OC(CCCN1CCCCC1)(c1ccccc1)c1ccccc1 [Diphenidol hydrochloride]	56%
CCN(CC)CCOC(=O)C(c1ccccc1)c1ccccc1 [Adiphenine hydrochloride]	87%
CCN(CC)CCNc1ccc(CO)c2sc3ccccc3c(=O)c12 [Hycanthone]	52%
O=C(COc1ccc(Cl)cc1)N1CCN(Cc2ccc3c(c2)OCO3)CC1 [Fipexide hydrochloride]	56%
CNC(C)CCC=C(C)C (stereo not drawn) [Isometheptene mucate]	72%
CN(Cc1cnc2nc(N)nc(N)c2n1)c1ccc(C(=O)N[C@@H](CCC(=O)O)C(=O)O)cc1 (racemic) [Amethopterin (R,S)]	66%
Cc1ccsc1/C=C/C1=NCCCN1C [Morantel tartrate]	92%
CN(C)c1ccc(O)c2c1C[C@H]1C[C@H]3[C@H](N(C)C)C(O)=C(C(N)=O)C(=O)[C@@]3(O)C(O)=C1C2=O [Minocycline hydrochloride]	18%
CC(C(=O)O)c1ccc(C(=O)c2ccccc2)s1 (stereo not drawn) [Tiaprofenic acid]	79%
CC(=O)N(CC(O)CN(C(C)=O)c1c(I)c(C(=O)NCC(O)CO)c(I)c(C(=O)NCC(O)CO)c1I)c1c(I)c(C(=O)NCC(O)CO)c(I)c(C(=O)NCC(O)CO)c1I (stereo not drawn) [Iodixanol]	50%
c1ccc(CN(CC2=NCCN2)c2ccccc2)cc1 [Antazoline hydrochloride]	55%
CN(C)CC/C=C1/c2ccccc2COc2ccc(CC(=O)O)cc21 [Olopatadine hydrochloride]	62%
C=CCSCC1Nc2cc(Cl)c(S(N)(=O)=O)cc2S(=O)(=O)N1 (stereo not drawn) [Althiazide]	98%
CCCOc1ccc(C(=O)OCCN(CC)CC)cc1N [Proparacaine hydrochloride]	96%
CC(CN(C)C)C(C)(O)Cc1ccc(Cl)cc1 (stereo not drawn) [Clobutinol hydrochloride]	78%
C[C@]1(Cn2ccnn2)[C@H](C(=O)O)N2C(=O)C[C@H]2S1(=O)=O [Tazobactam]	54%
CC[C@@H](CO)NCCN[C@@H](CC)CO [Ethambutol dihydrochloride]	75%
CC(=O)OCC(=O)[C@@]1(OC(C)=O)[C@@H](C)C[C@H]2[C@@H]3C[C@H](F)C4=CC(=O)C=C[C@]4(C)[C@@]3(F)[C@@H](O)C[C@@]21C [Diflorasone Diacetate]	91%
C=CCOC(Cn1ccnc1)c1ccc(Cl)cc1Cl (stereo not drawn) [Enilconazole]	95%
N=C(N)NCCN1CCCCCCC1 [Guanethidine sulfate]	83%
CC(CN(C)C)CN1c2ccccc2Sc2ccccc21 (stereo not drawn) [Trimeprazine tartrate]	66%
CC1(C)[C@@H](OC(=O)CCC(=O)O)CC[C@]2(C)[C@H]3C(=O)C=C4[C@@H]5C[C@@](C)(C(=O)O)CC[C@]5(C)CC[C@@]4(C)[C@]3(C)CC[C@@H]12 [Carbenoxolone disodium salt]	70%
CO/N=C(\C(=O)N[C@@H]1C(=O)N2C(C(=O)OC(C)OC(C)=O)=C(COC(N)=O)CS[C@H]12)c1ccco1 (stereo partly drawn) [Cefuroxime axetil]	94%

3 structures out of the list, sorted by heavy-atom count, descending.
SMILES	biofilm formation
CC1(C)[C@@H](OC(=O)CCC(=O)O)CC[C@]2(C)[C@H]3C(=O)C=C4[C@@H]5C[C@@](C)(C(=O)O)CC[C@]5(C)CC[C@@]4(C)[C@]3(C)CC[C@@H]12 [Carbenoxolone disodium salt]	70%
O=C(COc1ccc(Cl)cc1)N1CCN(Cc2ccc3c(c2)OCO3)CC1 [Fipexide hydrochloride]	56%
CC(CN(C)C)C(C)(O)Cc1ccc(Cl)cc1 (stereo not drawn) [Clobutinol hydrochloride]	78%
